Some of the results follow.
B1: il10ra_site1_sap_23_mot_HHH_b1_00531_af2_000000024_0001_1_19_H_._HHH_b1_06468_af2_0001_0000200012_0000001_0_0001 (protein)
chain: SSSSSELEEEAEELLEKARELIENGNPEEASRVLYEAARLAIEAGDDELWQKIIELFVRASSSSS
B2: il10ra_site1_normal_mot_HHH_b2_00984_000000042_0001_1_20_H_._HHH_b2_02851_af2_0001_0000400020_0000002_0 (protein)
chain: SSSSSSDLEELEEELRELIERGDREEALRVAAEAVRFAFRLGDEEALQELWELIRSLESSSSSSS
B3: il10ra_site1_normal_mot_HHH_b2_02354_af2_000000157_0001_40_56_H_._HHH_b1_00899_af2_0001_0000400015_0000001_0 (protein)
chain: SSSSSENLEWIFKTLEELAKQLGNPELLERIEELREEAKEKNDDRLLSEAVELVLKEARKSSSSS
B4: il10ra_site1_normal_mot_HHH_b2_04680_000000215_0001_1_16_H_._HHH_b2_04874_af2_0001_0000300006_0000001_0 (protein)
chain: SSSSSDTEKSREAYELLREAFHIPDEEEVEKLLEEALRLAEEANDFALAFAIRLAEQSLRSSSSS
B5: il10ra_site1_sap_11_mot_HHH_b2_01447_af2_000000258_0001_1_20_H_._HHH_b2_06908_af2_0001_0000100001_0000002_0_0001 (protein)
chain: SSSSNDEVYRLLQELIELVKEGDDEEFRRLYEEIERLIEELGDWVMRFSLEFLHRDFEANKSSSS
B6: il10ra_site1_normal_mot_HHH_b1_08711_000000278_0001_1_16_H_._HHH_b1_01996_af2_0001_0000200012_0000001_0 (protein)
chain: SSSSDEELQEALELVQRAIKLAARGDPEEARKLLEEAAELARELGDERLLRIIEELLRALSSSSS
B7: il10ra_site1_sap_11_mot_HHH_b1_05370_000000138_0001_1_16_H_._HHH_b2_03593_0001_0000300029_0000001_0_0001_af2pred_0001 (protein)
chain: SSSSSQELIREVRELLERARELLEEGDEEELEEILERLRELYEETGDFVVEVAVEAIERLRSSSS
B8: il10ra_site1_normal_mot_HHH_b2_00984_000000042_0001_1_20_H_._HHH_b2_01216_af2_0001_0000100003_0000001_1 (protein)
chain: SSSSDEEVRKLIEEAEELEERGDPRRAIEVLARASSLALQLGDAELLQEIWELIHKLKELSSSSS
B9: il10ra_site1_normal_mot_HHH_b2_01032_000000296_0001_1_18_H_._HHH_b1_04144_af2_0001_0000100001_0000001_1 (protein)
chain: SSSSSDERERLLELLRQAFRLALRGDPEEAREVLEEALELAEELGDERAVRQIRQVLQAQSSSSS
B10: il10ra_site1_sap_27_mot_126ace9b790e630c13bc3545a3f0f279_0001_af2_000000183_0001_15_29_H_._26a4def2a2a508b1712eabbe1612c4d7_0001_0001_0000500038_0000002_0_0001 (protein)
chain: SSSSTEEVYEILRRVLELIANGNLEEAEELLQRAEELAKEEGSFVFRYSVELLQEDVERRSSSSS
B11: il10ra_site1_sap_15_mot_HHH_b2_01447_af2_000000258_0001_1_20_H_._HHH_b1_06982_af2_0001_0000100006_0000002_0_0001_af2pred_0001 (protein)
chain: SSSSSEEEVRLARRAARLAFRIPDPELSRELLRLARRLLREGDPRLLEELRELIEEIEERLSSSS
B12: il10ra_site1_normal_mot_HHH_b1_06057_000000129_0001_22_38_H_._HHH_b2_05766_0001_0000200026_0000001_0 (protein)
chain: SSSSDRTARWSVEFALRVAEELAKRDPERARELLEHLAELLKEARDEELLEEVERLLEEIGSSSS
B13: il10ra_site1_normal_mot_HHH_b1_02464_000000069_0001_1_19_H_._HHH_b2_01682_0002_0000300019_0000002_0 (protein)
chain: SSSSSSDLEELIEEVEELIERNDEEKAIEVLQRLVRLAFRLSDERADRAIIELARLIASSSSSSS
B14: il10ra_site1_sap_22_mot_HHH_b2_03328_af2_000000127_0001_1_19_H_._HHH_b1_06177_0001_0000200023_0000001_0_0001 (protein)
chain: SSSSTQELYELLRRIVELDHKGNLEEAERLLEELEELARERNDPNIRMQVEFLEEIIRRNLSSSS
B15: il10ra_site1_normal_mot_8756ee2cf497b5429c717dfc0c0bcfd6_0001_000000186_0001_1_13_H_._HHH_b2_07310_af2_0001_0000500024_0000001_0 (protein)
chain: SSSSDEELEELYELIRRAAELLHEGNPEEARKLIEEAEKLAEELGNDVAKEQLKYLERVANSSSS
B16: il10ra_site1_normal_mot_HHH_b2_07731_000000003_0001_42_56_H_._HHH_b2_03545_0001_0000200024_0000001_0_af2pred_0001 (protein)
chain: SSSSDEVEERVEELLEEAKELNEKGNPREALKLIREAHEIASKNNDPEALKLVLKLLKELFSSSS
B17: il10ra_site1_normal_mot_HHH_b2_01235_000000294_0001_1_18_H_._HHH_b1_06388_0001_0000100001_0000001_0 (protein)
chain: SSSSDEREVYELSERISELDQEGDIERAEELLEEAERIAEELGNLNMLAVLEFLREILERNSSSS
B18: il10ra_site1_normal_mot_HHH_b1_08176_000000188_0001_1_20_H_._HHH_b1_00383_af2_0001_0000200007_0000001_0 (protein)
chain: SSSSDEENQQALELSKEAFRLLLRGNPEEAEKLLEEALELAERGGNERLARVIRELLQAIKSSSS
B19: il10ra_site1_sap_12_mot_HHH_b1_08593_000000040_0001_43_57_H_._HHH_b1_08417_0001_0000300011_0000001_0_0001_af2pred_0001 (protein)
chain: SSSSDEEIEERVEELLERAKRVSEEEAQELLLEAAELAIKLGDDELLEEILRVWIEILEKSSSSS
B20: il10ra_site1_normal_mot_HHH_b1_07380_000000129_0001_1_20_H_._HHH_b1_05236_0001_0000300044_0000001_0 (protein)
chain: SSSSSEEVYKLSREALELLAEGNPEEAEEVLEQARRLAEELGDRVTLFNVRHILEDIERERSSSS
B21: il10ra_site1_normal_mot_HHH_b2_00984_000000042_0001_1_20_H_._HHH_b2_01291_0001_0000200005_0000001_0 (protein)
chain: SSSSDVEEEVEELLREAEEAFRQGDEEEAARLLLEATQLAIENNNPELLQEVWRVIRELGSSSSS
B22: il10ra_site1_normal_mot_HHH_b2_03220_af2_000000223_0001_23_40_H_._HHH_b1_06300_0001_0000100001_0000001_1 (protein)
chain: SSSSTEEVWKLIREALELLAEGNPEEARKVLEEAREIAEEENNELLEIQLEFLLKDIEELSSSSS
B23: il10ra_site1_normal_mot_HHH_b2_02053_af2_000000006_0001_3_19_H_._HHH_b2_00480_af2_0001_0000100003_0000003_0 (protein)
chain: SSSSNEAEEVYRILRKVLEARARGNPEEAEELLEEAHRIAEESGNRALLFVVRHLLEDLKASSSS
B24: il10ra_site1_sap_21_mot_HHH_b2_03117_000000257_0001_1_18_H_._HHH_b1_00484_af2_0001_0000100001_0000001_0_0001 (protein)
chain: SSSSDEEELAQLTHELVELYRNGDEERAEEVAERIAELARELGNRLAAWLAEMMLRILERGSSSS
B25: il10ra_site1_sap_24_mot_HHH_b1_05937_af2_000000262_0001_20_37_H_._HHH_b2_03447_af2_0001_0000600015_0000002_0_0001 (protein)
chain: SSSSSSDLEELLEELEELLEEGNLEEALELAKELLHLAIQNGDEEILQAVWRLIKRATSSSSSSS
B26: il10ra_site1_normal_mot_HHH_b1_07768_000000240_0001_18_35_H_._HHH_b1_07377_0001_0000600043_0000001_0 (protein)
chain: SSSSTLEWSVKFALRSARILAKEDPERAKEQLEKALKHVRQAGNEELREEIEELIEELESSSSSS
B27: il10ra_site1_normal_mot_HHH_b1_02131_000000111_0001_1_18_H_._HHH_b1_01799_0001_0000300022_0000001_0 (protein)
chain: SSSSDQEVLELAIRALRLAFRLNDPEAVQLVHELLKRYFEEGDEKYREELEELLEELEKRSSSSS
B28: il10ra_site1_sap_18_mot_HHH_b1_03121_af2_000000121_0001_21_37_H_._HHH_b2_08293_0001_0000400020_0000001_0_0001 (protein)
chain: SSSSSSEVEELIREAEEAAKEQGDRAARAVLEKLQELLENGEISEELAKIQAKLILMMLGSSSSS
B29: il10ra_site1_sap_24_mot_HHH_b2_02933_000000199_0001_1_19_H_._HHH_b1_00824_0001_0000100001_0000002_0_0001 (protein)
chain: SSSSSDEEVEELLEEAKELAEEGDPRKAIKVLAEAVRLAIHNGDKEALQAVWRLVEELARSSSSS
B30: il10ra_site1_sap_18_mot_HHH_b2_03425_000000200_0001_22_39_H_._HHH_b1_04958_af2_0001_0000100003_0000001_0_0001 (protein)
chain: SSSSSDEEEERIEELLEEAKEVTDHEEVLRILFEAVHLAIRISNPELLHEIWRLIQKLASSSSSS
B31: il10ra_site1_normal_mot_HHH_b1_08477_000000091_0001_40_57_H_._HHH_b2_05760_af2_0002_0000200005_0000001_0 (protein)
chain: SSSDEEAEEAARRILESAQRAEELGDPELAKQALRFAAALARYAGDPELLEEIERLLEELGSSSS
B32: il10ra_site1_sap_19_mot_HHH_b1_03333_000000091_0001_1_17_H_._HHH_b1_05619_af2_0001_0000100002_0000001_0_0001 (protein)
chain: SSSSDETQEVYELLREVVELHHEGNPEEAREVLREALELAQELGNWTFRMQAEYLERLINSSSSS
B33: il10ra_site1_sap_22_mot_HHH_b1_01585_000000217_0001_1_18_H_._HHH_b2_04160_af2_0001_0000200006_0000001_0_0001 (protein)
chain: SSSSSSDEVEELLEEAKELAEKGNPEEALELLQRAVRLAIRAKDPELLQEVWEVVKRLSSSSSSS
B34: il10ra_site1_normal_mot_HHH_b2_06752_000000207_0001_1_21_H_._HHH_b2_00819_af2_0001_0000200016_0000001_0_af2pred_0001 (protein)
chain: SSSSDAREKALRLALEALEIAVRLGDEEAVKRALRLIEHLARLLNDEEAQEIVEEVKEELSSSSS
B35: il10ra_site1_sap_19_mot_HHH_b2_03438_af2_000000049_0001_18_34_H_._HHH_b2_00028_af2_0001_0000700019_0000001_0_0001 (protein)
chain: SSSSSDAVHRVYELLREAMEALANGNPEEARELLEEAEELLEENNNKAMLVLIEWLQKRVSSSSS
B36: il10ra_site1_normal_mot_HHH_b1_02997_000000220_0001_39_52_H_._HHH_b1_04543_af2_0001_0000100002_0000001_0_af2pred_0001 (protein)
chain: SSSSDNREILKIIREAAEARHRGDPEEAEELVEEAVRLAEEEGNKLALVIARFLLKDIRQGSSSS
B37: il10ra_site1_sap_23_mot_39ab2cb694c8b9c1dc7e65c0d672c93e_0001_000000036_0001_53_65_H_._HHH_b1_07337_0001_0000100009_0000001_0_0001 (protein)
chain: SSSSDEEYKEVKRLIEEIAEALRNNDEELVRELLEELRELAEEINNPAAEFSLRILEEALNSSSS

The binders below were run against il10ra, Q13651 (assay: yeast display titration).

Apparent Kd, inactive:
B1 no binding seen
B2 no binding seen
B3 no binding seen
B4 no binding seen
B5 no binding seen
B6 no binding seen
B7 no binding seen
B8 no binding seen
B9 no binding seen
B10 no binding seen
B11 no binding seen
B12 no binding seen
B13 no binding seen
B14 > 1760 nM
B15 no binding seen
B16 no binding seen
B17 no binding seen
B18 no binding seen
B19 no binding seen
B20 no binding seen
B21 no binding seen
B22 no binding seen
B23 no binding seen
B24 > 1120 nM
B25 no binding seen
B26 no binding seen
B27 no binding seen
B28 no binding seen
B29 no binding seen
B30 no binding seen
B31 no binding seen
B32 no binding seen
B33 no binding seen
B34 no binding seen
B35 no binding seen
B36 no binding seen
B37 no binding seen

Random excerpt: 2 records from the list, in no set order.
Apparent Kd, inactive:
B24 > 1120 nM
B11 no binding seen
